Source: PubChem BioAssay AID1439 (NMMLSC, 2008)
Hit rate of the full screen: of about 220,000 compounds, about 770 (0.35%) were called active. The inconclusive results got no clear call from the source; some entries with a clear call stand among them for comparison. No stated cut-off is given here; in the data, active means binding response below about 49% or above about 150%; inconclusive means no clear call, values can overlap the other calls; inactive means in between.

The chains behind the UniProt entries cited, without tags or fusion partners.
UniProt P09471, whole entry, looked up: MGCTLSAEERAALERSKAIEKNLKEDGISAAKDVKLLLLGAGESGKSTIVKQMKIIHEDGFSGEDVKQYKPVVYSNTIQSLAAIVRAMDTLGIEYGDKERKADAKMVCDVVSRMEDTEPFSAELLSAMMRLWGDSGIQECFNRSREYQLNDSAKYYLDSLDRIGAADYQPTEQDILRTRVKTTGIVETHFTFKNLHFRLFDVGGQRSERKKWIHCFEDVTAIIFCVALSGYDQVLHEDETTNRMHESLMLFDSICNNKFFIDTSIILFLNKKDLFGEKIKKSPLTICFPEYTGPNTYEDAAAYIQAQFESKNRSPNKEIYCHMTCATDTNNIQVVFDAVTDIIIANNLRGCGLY

molecular target: Guanine nucleotide-binding protein G(o) subunit alpha (Homo sapiens) (UniProt P09471); test: RGS7-Galphao binding modulators, primary screen, biochemical, multiplexed bead flow cytometry (AID 1439); conditions: at 10 µM, actives lie on both sides;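 further: fluorescent Galphao held in activated GDP-AlF4 state binding bead-coupled RGS7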

| Compound | binding response (% of control) |
| --- | --- |
| COc1ccc(-c2csc(NC(=S)NC(=O)/C=C/c3ccco3)n2)cc1Br | inconclusive: 77.6% |
| O=C1NCCN/C1=C\C(=O)c1ccc(Cl)cc1 | inconclusive: 152% |
| CSc1ccccc1NC(=O)COC(=O)c1c[nH]c(=O)[nH]c1=O | inconclusive: 94.9% |
| Cc1cc2nccc(-c3ccc(Cl)c([N+](=O)[O-])c3)n2n1 | inactive: 99.2% |
| O=C(c1c[nH]c(C(=O)C(Cl)(Cl)Cl)c1)c1ccc(F)cc1Cl | inconclusive: 100% |
| O=C(CN1CCCC1)Nc1c(C(=O)C2CC2)oc2ccccc12 | inconclusive: 534% |
| CC(NC(=S)Nc1ccccc1)C(c1cccs1)N1CCOCC1 (centres undefined) | inconclusive: 103% |
| O=S(=O)(c1ccc(Cl)cc1)N1CCCC(C(F)(F)F)C1 (centres undefined) | inconclusive: 113% |
| CCOC(=O)c1ccc(NC(=O)CN(C)S(=O)(=O)c2ccc(Br)s2)cc1 | inactive: 104% |
| COc1cccc(N2CC(=O)N(NC(=O)c3sc4nc(C)cc(C)c4c3N)CC2=O)c1 | inconclusive: 81.9% |
| Cc1ccc(NS(=O)(=O)c2ccc(OCC(=O)NCc3cccnc3)cc2)cc1 | inactive: 88.4% |
| Cc1cccc(C)c1NC(=O)C[N+](C)(C)CC(O)COc1cccc2ccccc12 (centres undefined) | inactive: 102% |
| COc1ccc(-c2nc3ccccc3c(=O)n2CCOc2cc(C)ccc2C)cc1 | inactive: 106% |
| N/C(=N/OC(=O)c1ccc(Cl)cc1)c1ncc([N+](=O)[O-])s1 | inconclusive: 82% |
| O=C(c1cccc([N+](=O)[O-])c1)c1ccc2c(c1)OCCOCCOCCO2 | inconclusive: 78.7% |
| CCCc1nc2c(sc3nc4c(cc32)COC(C)(C)C4)c(=O)o1 | inconclusive: 75.4% |
| COC/C=C/C1=CC2=CC(=O)C(C)(OC(=O)c3ccco3)C(=O)C2=CO1 (centres undefined) | inconclusive: 75.8% |
| CC(C)(C)C(=O)/C(C#N)=C/c1cccs1 | inconclusive: 107% |
| O=C(N/N=C/c1ccc(N2CCOCC2)cc1)c1ccc(O)cc1 | inconclusive: 117% |
| COc1ccc(NC(=O)CCC(=O)N(Cc2ccc(OC)c(OC)c2)c2nccs2)cc1 | inactive: 105% |
| CCNC(=S)N/N=C/c1ccc(OCc2ccc(C(=O)OC)cc2)cc1 | inactive: 99.3% |
| O=C(COc1ccc(Cl)cc1)NNC(=O)CSc1nncs1 | inconclusive: 85.6% |
| CCCCOCCCNCC(=O)Nc1ccc(S(N)(=O)=O)cc1 | inconclusive: 105% |

| Compound | binding response (% of control) |
| --- | --- |
| CC(=O)NC1C(=O)N=C(SC(C)C(=O)Nc2cccc(Cl)c2)NC1=O (centres undefined) | inconclusive: 96.3% |
| CS(=O)(=O)N1CCC(C(=O)NCc2ccc(Cl)cc2)CC1 | inconclusive: 89.7% |
| NC(=O)CC(NC(=O)c1ccccc1)c1ccc(NCc2ccc(F)cc2)c([N+](=O)[O-])c1 (centres undefined) | inconclusive: 99.8% |
| O=C(O)CC/C(=C\c1ccc(N2CCOCC2)c([N+](=O)[O-])c1)c1nc2ccccc2s1 | inconclusive: 99.1% |
| NC(N)=NS(=O)(=O)c1ccc(NC(=S)NC(=O)/C=C/c2cccs2)cc1 | inconclusive: 58% |
| N/C(=N\O)c1ccc(N2CCN(c3ncccc3C(F)(F)F)CC2)nc1 | inconclusive: 259% |
| Cc1ccc(S(=O)(=O)N/N=C/c2c[nH]c3ccccc23)cc1 | inconclusive: 110% |
| Cc1ccc(C(=O)c2cc3c(cc2[N+](=O)[O-])OCCO3)cc1 | inconclusive: 112% |
| CCN(CC(=O)NCc1cccs1)S(=O)(=O)c1ccc([N+](=O)[O-])cc1 | inconclusive: 96.3% |
| COc1ccc(-n2c(=O)/c(=C\c3cccs3)s/c2=C(/C#N)C(=O)NCCN2CCOCC2)cc1 | inconclusive: 91.2% |
| Clc1ccccc1CSc1nnc([C@@H]2CCCN2)o1 | inconclusive: 94.1% |
| Cn1c(N)c(C(=O)Nc2ccccc2F)sc1=S | inconclusive: 120% |
| O=C(c1cccc2c1-c1ccccc1C2)N1CCCCC1 | inconclusive: 98.7% |
| Nc1c(C(=O)NCC2CCCO2)sc2nc3c(c(-c4ccco4)c12)CC/C3=C\c1ccco1 (centres undefined) | active: 43.9% |
| O=C(CSCc1ccc(Br)cc1)NCc1ccccn1 | inconclusive: 99.3% |
| O=C(Nc1ccc(Cl)cc1)C1=Cc2cc(Cl)ccc2OC1 | inactive: 104% |
| COc1ccc(CCNC(=O)C2CC3Cn4c(nc5cc6ccccc6cc54)C3N2C)cc1 (centres undefined) | inconclusive: 101% |
| O=C(Cn1c(O)c(/C=C2\C=Nc3ccccc32)sc1=O)N1CCOCC1 | inconclusive: 96.6% |
| COc1ccc(-n2c(=S)[nH]c3[nH]ncc3c2=O)cc1 | inconclusive: 38.4% |
| CC(NC(=O)C(C)(C)C)C(c1cccs1)N1CCN(Cc2ccccc2)CC1 (centres undefined) | inconclusive: 102% |
| Cc1ccc(C(=O)OCC(=O)NC2CCCCC2)s1 | inconclusive: 106% |
| Cc1ccc(CN2CCN(CC(C)C)C(CCO)C2)s1 (centres undefined) | inactive: 102% |
| COc1ccc(C(=O)NCc2csc(-c3cccs3)n2)cc1 | inconclusive: 32.4% |

Sorted by formula weight (largest number first): 17 of the compounds above.

| Compound | binding response (% of control) |
| --- | --- |
| COc1ccc(-n2c(=O)/c(=C\c3cccs3)s/c2=C(/C#N)C(=O)NCCN2CCOCC2)cc1 | inconclusive: 91.2% |
| COc1ccc(-c2csc(NC(=S)NC(=O)/C=C/c3ccco3)n2)cc1Br | inconclusive: 77.6% |
| CCOC(=O)c1ccc(NC(=O)CN(C)S(=O)(=O)c2ccc(Br)s2)cc1 | inactive: 104% |
| O=C(O)CC/C(=C\c1ccc(N2CCOCC2)c([N+](=O)[O-])c1)c1nc2ccccc2s1 | inconclusive: 99.1% |
| NC(N)=NS(=O)(=O)c1ccc(NC(=S)NC(=O)/C=C/c2cccs2)cc1 | inconclusive: 58% |
| COc1ccc(-c2nc3ccccc3c(=O)n2CCOc2cc(C)ccc2C)cc1 | inactive: 106% |
| CC(=O)NC1C(=O)N=C(SC(C)C(=O)Nc2cccc(Cl)c2)NC1=O (centres undefined) | inconclusive: 96.3% |
| O=C(c1cccc([N+](=O)[O-])c1)c1ccc2c(c1)OCCOCCOCCO2 | inconclusive: 78.7% |
| CCNC(=S)N/N=C/c1ccc(OCc2ccc(C(=O)OC)cc2)cc1 | inactive: 99.3% |
| N/C(=N\O)c1ccc(N2CCN(c3ncccc3C(F)(F)F)CC2)nc1 | inconclusive: 259% |
| O=C(COc1ccc(Cl)cc1)NNC(=O)CSc1nncs1 | inconclusive: 85.6% |
| CS(=O)(=O)N1CCC(C(=O)NCc2ccc(Cl)cc2)CC1 | inconclusive: 89.7% |
| N/C(=N/OC(=O)c1ccc(Cl)cc1)c1ncc([N+](=O)[O-])s1 | inconclusive: 82% |
| O=C(Nc1ccc(Cl)cc1)C1=Cc2cc(Cl)ccc2OC1 | inactive: 104% |
| Cc1cc2nccc(-c3ccc(Cl)c([N+](=O)[O-])c3)n2n1 | inactive: 99.2% |
| Cc1ccc(C(=O)OCC(=O)NC2CCCCC2)s1 | inconclusive: 106% |
| O=C(c1cccc2c1-c1ccccc1C2)N1CCCCC1 | inconclusive: 98.7% |

Further structures follow:

| Compound | binding response (% of control) |
| --- | --- |
| Nc1nnn(CC(=O)N/N=C/c2ccc(Cl)cc2Cl)n1 | inconclusive: 95.8% |
| O=C(N/N=C/C(Cl)=C/c1ccc([N+](=O)[O-])cc1)C(=O)Nc1ccccc1C(=O)O | inconclusive: 57.5% |
| Cc1ccc(S(=O)(=O)N2CCOCC2)cc1NC(=O)CNC1CCCC1 | inconclusive: 103% |
| CCn1nc(NC(=O)Cc2ccc(OC)cc2)c2cc3cc(C)ccc3nc21 | inconclusive: -46.9% |
| N/C(CC(=O)Nc1ccc(F)c(Cl)c1)=N\OC(=O)c1cccs1 | inconclusive: 79.9% |
| O=C(COC(=O)/C=C/c1ccco1)Nc1ccc(F)cc1Cl | inconclusive: 95.4% |
| c1ccc(-c2ncc3ccccn23)cc1 | inconclusive: 109% |
| CCN1CCCC1Cn1cnc2c([nH]c3ccc(OC)cc32)c1=O (centres undefined) | inconclusive: 111% |
| COC(=O)N/N=C/c1cn(CCOc2ccccc2)c2ccccc12 | inconclusive: 78.7% |
| O=C(COC(=O)c1c(F)cccc1F)c1ccc[nH]1 | inconclusive: 209% |
| CCCCOc1ccc(/C=C/C(=O)OCC(=O)NC(=O)NCC(C)C)cc1OCC | inactive: 104% |
| CC(C)N(Cc1ccccc1)C(=S)Nc1cccnc1 | inconclusive: 80.7% |
| CCN(CC)c1ccc(/C=C(\C#N)C(N)=S)cc1 | inconclusive: 92.5% |
| Cc1ccc2nc3c(c(Nc4ccccc4)c2c1)CCC3 | inconclusive: 77.8% |
| COc1ccc(NC(=O)COC(=O)Cc2ccc(Br)cc2)cc1 | inconclusive: 99.5% |
| O=C(COc1ccccc1)Nc1ccccc1Cl | inactive: 90.4% |
| S=C(NCc1ccco1)Nc1ccc(Oc2ccc(Cl)cc2)cc1 | inconclusive: 200% |
| CCOC(=O)/C=C/CN(C(=O)OC(C)(C)C)S(=O)(=O)N1CC=CC1 | inconclusive: 107% |
| CCOC(=O)C1=C(c2ccccc2)ON(C)C1c1ccccc1 (centres undefined) | inactive: 95.9% |
| CC(=O)Oc1ccc2c(c1)O/C(=C\c1ccncc1)C2=O | inconclusive: 96.8% |
| C=CCOc1nc2c(c(=O)n(C)c(=O)n2C)n1Cc1ccccc1 | inconclusive: 116% |
| COC(=O)CNC(=O)c1ccc(C)s1 | inactive: 101% |
| CC1OC(OC2C(OC3C(O[C@H]4CC[C@]5(C)C6C=C[C@]78OC[C@@]9(CC[C@@H](C)[C@H](C)C97)[C@H](O)C[C@@]8(C)[C@]6(C)CC[C@H]5C4(C)C)OC(C)C(O)C3O)OC(CO)C(O)C2O)C(O)C(O)C1O (some centres undefined) | inconclusive: 27.3% |

| Compound | binding response (% of control) |
| --- | --- |
| O=S1(=O)CC2N=C(N(Cc3c(F)cccc3Cl)c3ccccc3F)SC2C1 (centres undefined) | active: 12.2% |
| C=CCn1c(-c2cccc(S(=O)(=O)N(CC)CC)c2)n[nH]c1=S | inconclusive: 111% |
| COc1ccc(CN2CCNC(=O)C2CC(=O)N2CCc3ccccc3C2)c(OC)c1 (centres undefined) | inactive: 104% |
| COc1ccc(/C=C/C(=O)N2CCN(c3ccccn3)CC2)c2ccccc12 | inactive: 101% |
| O=c1c2ccccc2c(-c2ccccc2)nn1-c1ccccc1 | inconclusive: 489% |
| O=C(Cn1c(NCCO)nc2ccccc21)NCC(F)(F)F | inconclusive: 78.4% |
| NC(=S)N/N=C1\CC(n2nnn(-c3cccc(Cl)c3)c2=S)C2COC1O2 (centres undefined) | inactive: 99.2% |
| COC(=O)c1onc(-c2c(Cl)cccc2Cl)c1C(=O)OC | inconclusive: 140% |
| Cc1cccc(C(=O)OCC(=O)Nc2ccc(N3CCCCC3)cc2)c1O | inactive: 97.9% |
| CC1(C)CC(C(CC(=O)N2CCCC2)Cc2ccccc2)CCO1 (centres undefined) | inconclusive: 62% |
| O=C(O)c1nn(-c2ccccc2-c2n[nH]c(=O)[nH]c2=O)c(=O)[nH]c1=O | inconclusive: 106% |
| C=CCOC(=O)C1=C(C)NC(=S)C(C#N)(CC=C)C1c1ccccc1Cl (centres undefined) | inconclusive: 398% |
| Cc1nc(-c2ccc(S(=O)(=O)NCC3CCN(C(=O)OC(C)(C)C)CC3)s2)cs1 | inconclusive: -72.2% |
| O=c1c2ccccc2c(-c2ccc(O)cc2)nn1-c1cccc(C(F)(F)F)c1 | inactive: 97.6% |
| O=[N+]([O-])c1ccc(OS(=O)(=O)Cc2ccccc2)cc1 | inactive: 107% |
| COc1ccccc1Oc1coc2c(CN3CCOCC3)c(O)ccc2c1=O | inconclusive: 49.7% |
| O=C(/C=C/NNC(=O)c1ccccc1)c1ccc([N+](=O)[O-])cc1 | inactive: 97.8% |
| NNC(=O)COc1ccc(C2SCCS2)cc1 | inconclusive: 119% |
| Cc1c(C(=O)Cc2ccccc2)n(C)c2ccccc12 | inconclusive: 88.5% |
| CC(Oc1ccc(Cl)cc1Cl)c1ccnc2nc(N3CCOCC3)nn12 (centres undefined) | inconclusive: 110% |
